Assay results reported in article PMC7862700.
The list shows a part of the results, in another mix than the full data. At the low end of the ranking the order means little.

Protein sequences, listed by entry. Tags and fused reporters are not part of them. Lines headed by an entry give the natural chain unless they say otherwise; changes in a name come on top.
UniProt Q01892: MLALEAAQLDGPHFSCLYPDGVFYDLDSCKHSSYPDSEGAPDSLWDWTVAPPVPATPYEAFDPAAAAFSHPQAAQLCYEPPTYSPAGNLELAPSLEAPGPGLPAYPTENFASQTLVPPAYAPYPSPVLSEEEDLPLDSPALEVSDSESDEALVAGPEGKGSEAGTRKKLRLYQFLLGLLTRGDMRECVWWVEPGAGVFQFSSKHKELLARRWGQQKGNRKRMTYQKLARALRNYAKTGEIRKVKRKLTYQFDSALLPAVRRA

What was measured:
Assay in all cases: DAPPL (digital affinity profiling via proximity ligation, sequencing)
Conditions in all cases: 10 mM Tris-HCl pH 7.5, 50 mM NaCl, 1 mM DTT, 4% glycerol, room temperature, 30 min; GST-TFs on glutathione beads, 16-mer random dsDNA library, 0.1% …; high values mean tight binding; double strand, one strand shown; scale: fold enrichment (6-mer frequency, TF over GST control)
[1] = biological target: T1, FLI1 (UniProt Q01543)
T1 sequence: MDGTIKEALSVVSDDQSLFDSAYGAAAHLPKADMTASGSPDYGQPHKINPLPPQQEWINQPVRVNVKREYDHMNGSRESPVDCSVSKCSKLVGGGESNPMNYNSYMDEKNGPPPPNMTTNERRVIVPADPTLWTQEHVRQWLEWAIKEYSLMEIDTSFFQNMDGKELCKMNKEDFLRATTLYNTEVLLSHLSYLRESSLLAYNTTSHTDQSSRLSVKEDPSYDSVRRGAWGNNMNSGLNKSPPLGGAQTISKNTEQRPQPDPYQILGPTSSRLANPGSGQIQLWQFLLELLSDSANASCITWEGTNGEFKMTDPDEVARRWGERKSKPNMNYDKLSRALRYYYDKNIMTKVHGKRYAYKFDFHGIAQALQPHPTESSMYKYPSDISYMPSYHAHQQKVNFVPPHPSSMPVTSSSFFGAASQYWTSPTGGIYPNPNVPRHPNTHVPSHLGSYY

[2] = biological target: T2, EHF (UniProt Q9NZC4)
T2 sequence: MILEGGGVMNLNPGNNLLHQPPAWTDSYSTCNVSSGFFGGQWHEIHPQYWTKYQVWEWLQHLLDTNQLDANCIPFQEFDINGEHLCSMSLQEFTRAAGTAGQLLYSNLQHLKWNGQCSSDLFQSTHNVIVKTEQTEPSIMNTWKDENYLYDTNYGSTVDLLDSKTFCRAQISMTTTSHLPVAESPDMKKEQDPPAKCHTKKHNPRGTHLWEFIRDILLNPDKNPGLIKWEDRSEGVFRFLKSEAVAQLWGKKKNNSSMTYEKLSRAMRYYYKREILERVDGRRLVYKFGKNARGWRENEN

[3] = biological target: SPIB (UniProt Q01892)
[4] = biological target: T3, ETV2 (UniProt O00321)
T3 sequence: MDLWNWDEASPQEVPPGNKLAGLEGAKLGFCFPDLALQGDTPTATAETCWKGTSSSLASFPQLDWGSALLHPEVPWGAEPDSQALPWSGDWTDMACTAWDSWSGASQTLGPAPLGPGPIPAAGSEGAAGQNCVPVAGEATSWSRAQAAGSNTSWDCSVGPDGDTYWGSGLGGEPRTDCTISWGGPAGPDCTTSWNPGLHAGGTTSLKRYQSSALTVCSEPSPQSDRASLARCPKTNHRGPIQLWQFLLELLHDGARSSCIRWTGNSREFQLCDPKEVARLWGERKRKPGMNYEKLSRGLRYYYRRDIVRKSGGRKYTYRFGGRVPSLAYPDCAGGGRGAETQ

[5] = biological target: T4, ETV3L (UniProt Q6ZN32)
T4 sequence: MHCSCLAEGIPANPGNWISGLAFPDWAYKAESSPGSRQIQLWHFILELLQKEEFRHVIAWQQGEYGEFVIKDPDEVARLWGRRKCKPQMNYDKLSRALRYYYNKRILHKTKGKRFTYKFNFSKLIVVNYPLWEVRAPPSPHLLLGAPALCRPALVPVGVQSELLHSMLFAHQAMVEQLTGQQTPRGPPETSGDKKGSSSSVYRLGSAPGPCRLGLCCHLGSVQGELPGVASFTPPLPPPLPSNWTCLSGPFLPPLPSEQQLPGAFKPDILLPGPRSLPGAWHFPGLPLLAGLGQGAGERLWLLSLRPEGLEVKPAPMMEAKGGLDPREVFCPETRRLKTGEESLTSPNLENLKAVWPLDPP

Row | Sequence | binding signal [1] | binding signal [2] | binding signal [3] | binding signal [4] | binding signal [5]
1 | CAAGAA | 1.03 | 1.04 | 0.943 | 0.999 | –
2 | GATTCA | 1.11 | 1.18 | – | 1.08 | –
3 | CTCGTT | 1.18 | 1.27 | – | 1.36 | –
4 | ATACAT | 1.31 | 1.21 | – | 1.33 | –
5 | ACCATT | 1.22 | – | 1.11 | 1.26 | –
6 | AACACT | 1.27 | 1.35 | – | 1.26 | –
7 | CTGCAG | 1.13 | – | – | – | 1.18
8 | GGTAAA | 0.972 | 1.05 | 1.08 | 1.03 | –
9 | CCTCCG | 1.18 | – | 1.48 | 1.33 | –
10 | ATCTGG | 1.19 | 1.12 | – | 1.23 | –
11 | TCCTCG | 1.6 | – | – | – | 1.57
12 | AGTGCA | 0.989 | – | – | – | 1.03
13 | CGGCTG | 0.816 | – | 1.03 | 0.993 | –
14 | GTGTTT | 1.15 | – | 1.16 | 1.02 | –
15 | ACTCAG | 0.986 | 0.978 | 0.992 | 1.09 | –
16 | TAGCGA | 1.1 | – | 0.995 | 0.923 | –
17 | CTGACC | 1.4 | 1.59 | – | 1.46 | –
18 | GCACGA | 1.14 | – | – | – | 1
19 | TGTTGT | 0.989 | – | 1.12 | 0.992 | –
20 | TGCGGC | 1.06 | – | 0.953 | 0.921 | –
21 | AGGAAG | 1.24 | – | 1.44 | – | 1.33

Row | Sequence | binding signal [1] | binding signal [2] | binding signal [3] | binding signal [4] | binding signal [5]
22 | GACTAC | 1.17 | – | – | – | 1.17
23 | TTCATT | 1.25 | – | – | – | 1.3
24 | CGACGC | 1.11 | – | – | – | 1.08
25 | GCCCAT | 1.06 | 0.95 | – | – | 0.951
26 | TGACGC | 1.1 | 1.21 | – | – | 1.24
27 | AATCCA | 1.09 | – | – | – | 0.974
28 | TAATTA | 1.24 | – | 1.27 | – | 1.23
29 | GCAACT | 1.22 | 1.2 | – | – | 1.17
30 | TCACGT | 1.28 | – | – | – | 1.22
31 | CGAAAT | 1.05 | – | – | – | 0.972
32 | ATTCTT | 1.48 | – | 1.56 | – | 1.46
33 | TTTGCC | 1.42 | 1.22 | 1.31 | – | 1.2
34 | TGTGGT | 1.08 | – | – | – | 1.04
35 | GAACTG | 0.927 | 1.01 | – | – | 0.95
36 | GTTTCT | 1.36 | – | – | – | 1.33
37 | TCTAAC | 1.18 | 1.16 | 1.19 | – | 1.19
38 | GCGTCT | 0.942 | 1.08 | – | – | 1.1
39 | CTTCTC | 1.38 | 1.37 | – | – | 1.39
40 | ACGCTC | 0.977 | 0.984 | 0.957 | – | 0.918
41 | TAATGG | 1.26 | 1.25 | 1.37 | – | 1.23
42 | AGCGAC | 1.09 | – | – | – | 1.13

Row | Sequence | binding signal [1] | binding signal [2] | binding signal [3] | binding signal [4] | binding signal [5]
43 | CAGATG | 1.05 | 0.974 | 0.972 | – | 0.982
44 | TCCTAA | 1.63 | – | 1.49 | – | 1.36
45 | TTACGG | 1.3 | 1.31 | 1.38 | – | 1.22
46 | TCGTAT | 0.996 | – | – | – | 0.944
47 | AGCTGT | 1.04 | 0.931 | – | – | 0.903
48 | ACCCCA | 1.05 | – | – | – | 1.09
49 | TCTGGT | 1.25 | – | – | – | 1.26
50 | TTGGCA | 1.15 | 1.08 | 1.15 | – | 1.14
51 | TTGGCT | 1.15 | – | 0.996 | – | 1.13
52 | TAAGTT | 1.23 | 1.38 | 1.35 | – | 1.4
53 | GTTCTG | 1.14 | – | – | – | 1.23
54 | GAAGTG | 1.46 | – | – | – | 1.53
55 | ATGCTC | 1.43 | – | – | – | 1.51
56 | CCTACC | 1.21 | – | – | – | 1.37
57 | CATAAT | 0.973 | – | – | – | 1.01
58 | TTGGGG | 1.4 | – | – | – | 1.3
59 | TAGTGT | 1.17 | 1.11 | – | – | 1.04
60 | ACTTGC | 1.46 | – | 1.35 | – | 1.48
61 | CGCGCG | 0.92 | 0.937 | – | – | –
62 | CTACAA | 1.17 | 1.14 | – | – | –
63 | TCGTCT | 1.52 | 1.38 | – | – | –

Complete entries as entered above. Values in the order: binding signal [1] | binding signal [2] | binding signal [3] | binding signal [4] | binding signal [5]
ACGCTC is listed as 0.977 | 0.984 | 0.957 | – | 0.918
ACCATT is listed as 1.22 | – | 1.11 | 1.26 | –
